# Reference: PubChem BioAssay AID2551 (National Center for Advancing Translational Sciences (NCATS), 2010)
# The chains behind the UniProt entries cited, without tags or fusion partners. Where a name states a change or a piece, a line headed by the entry shows the natural chain unless it says otherwise.
# UniProt P51450: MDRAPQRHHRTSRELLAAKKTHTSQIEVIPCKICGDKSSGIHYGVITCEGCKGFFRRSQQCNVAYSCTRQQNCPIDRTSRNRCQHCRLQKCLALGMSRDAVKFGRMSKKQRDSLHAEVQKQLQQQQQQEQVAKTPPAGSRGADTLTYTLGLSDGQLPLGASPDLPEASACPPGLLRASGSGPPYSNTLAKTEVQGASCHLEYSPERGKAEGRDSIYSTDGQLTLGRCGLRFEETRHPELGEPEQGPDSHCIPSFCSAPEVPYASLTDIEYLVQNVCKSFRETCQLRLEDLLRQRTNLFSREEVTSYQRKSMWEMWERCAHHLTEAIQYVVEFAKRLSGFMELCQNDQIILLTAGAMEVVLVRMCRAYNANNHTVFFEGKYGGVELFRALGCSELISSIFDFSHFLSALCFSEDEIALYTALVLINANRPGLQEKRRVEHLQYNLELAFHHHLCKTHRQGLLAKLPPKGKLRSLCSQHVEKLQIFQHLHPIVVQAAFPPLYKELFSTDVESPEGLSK
# “And” between values parts separate entries of the source, which are not always exact repeats. Identical values can stand only once. Among all 310,000 compounds or so, about 17,000 (5.5%) were called active. This list was built around the results that the source calls inconclusive (neither active nor inactive); the mix of calls is not that of the screen. The call rests on the fitted dose curve; in most records, active means well fitted inhibition curve with a large enough effect; inconclusive means small, poorly fitted or top-dose-only effect, or effect the other way; inactive means no such curve, though single readings can be large or run the other way. A potency beside an inconclusive call is a rough fit, not a confirmed value.
# Molecular target: Nuclear receptor ROR-gamma (Mus musculus) (UniProt P51450)
# Experiment: qHTS for inhibitors of ROR gamma transcriptional activity; further: nearly all actives have a fitted effect of over 60% in size
# Details: Drosophila S2 Gal4-RORgamma UAS-luciferase reporter, 20 h; series mostly up to 53.6 µM
# How it was run: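 Compounds are pin-transferred onto Drosophila Schneider cells expressing a copper-inducible Gal4–ROR gamma transactivation domain fusion. After 1 hr, copper sulfate is added to 700 uM final; luciferase is read 20 hr later.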
# Potency means the concentration at half of the fitted maximal effect.
row,Compound,Potency
1,COc1ccccc1NS(=O)(=O)c1cccc(NC(=O)NC2CCCCC2)c1,"inconclusive: 12.6 µM [activator, partial curve]"
2,CC1CCN(C(=S)Nc2ccc(SC(F)F)cc2)CC1,active: 7.94 µM
3,CCOC(=O)N1CCN(C(=O)CSCC(=O)Nc2nc(-c3cccs3)cs2)CC1,"inconclusive: 3.98 µM [activator, single point]"
4,O=C(c1ccc(Cl)cc1)N1N=CCC1(O)c1ccc(Cl)cc1 (stereo unspecified),"inconclusive: 15.8 µM [inhibitor, single point]"
5,O=S(=O)(c1ccc(OC(F)(F)F)cc1)N1CCC(O)(c2cccc(C(F)(F)F)c2)CC1,"inconclusive: 35.5 µM [activator, single point]"
6,Cc1[nH]n2c(=O)c3c(nc2c1-c1ccc(F)cc1)CCCC3,inactive
7,CN1C[C@@H]2C[C@@H](c3cccn3-c3nccs3)N3CCC[C@@]23C1=O,"inconclusive: 20 µM [inhibitor, single point]"
8,COc1ccc(/C=N/Nc2nnc(-c3ccccc3)c(=O)[nH]2)cc1,inactive
9,Cc1ccc(C(=O)C[n+]2cc(-c3ccccc3)n3c2CCCCC3)cc1,"inconclusive: 794 nM [activator, full curve] and inconclusive: 8.91 µM [activator, partial curve]"
10,O=C(CSc1nc(Nc2ccccc2)nc(N2CCOCC2)n1)Nc1ccc2c(c1)OCCO2,"inconclusive: 12.6 µM [activator, single point]"
11,CCCn1c(-c2cc(OC)c(OC)c(OC)c2)nc2c1c(=O)[nH]c(=O)n2Cc1ccccc1,"inconclusive: 0.891 µM [activator, full curve, poor fit]"
12,O=C1OC(c2cc(I)c(O)c(I)c2)(c2cc(I)c(O)c(I)c2)c2ccccc21,inactive
13,O=C(CSCC(=O)Nc1cccc2ccccc12)Nc1cccc2ccccc12,"inconclusive: 14.1 µM [activator, single point]"
14,CCS(=O)(=O)CCSc1nc2ccccc2o1,inactive
15,Cc1cc2cc(CNC(=S)Nc3ccc(OC(F)(F)F)cc3)ccc2[nH]1,active: 17.8 µM
16,CCCC(=O)N(CCc1ccc(OC)cc1)Cc1nc2ccccc2c(=O)[nH]1,active: 10 µM
17,Cc1ccccc1-c1nc(-c2ccc(NC(=O)c3ccc(Br)o3)cc2)no1,"inconclusive: 2 µM [activator, single point]"
18,S=c1[nH]nc(COc2ccccc2)n1/N=C/c1ccccn1,"inconclusive: 7.08 µM [inhibitor, partial curve]"
19,COc1cccc2cc(-c3cc(=O)oc4ccc(OCC(C)=O)cc34)oc12,inactive
20,O=[N+]([O-])c1cn(-c2nc(-c3ccco3)cc(C(F)(F)F)n2)cn1,"inconclusive: 35.5 µM [inhibitor, single point]"
21,COc1ccc(/C=N/Nc2nnc(-c3ncc[nH]3)c3ccccc23)cc1,active: 2.82 µM
22,Cc1cc(C)nc(NC2=NCCN2C(=O)NC2CCCCC2)n1,inactive
23,O=C(N/N=C\c1ccc(COc2ccc([N+](=O)[O-])cc2)o1)c1ccc(Cl)cc1,active: 12.6 µM
24,O=C(O)CCC(=O)N1CCN(c2nc(-c3ccccc3)c3cc(Br)ccc3n2)CC1,"inconclusive: 14.1 µM [activator, partial curve]"

row,Compound,Potency
1,COc1cccc(NC(=O)CNC(=O)c2ccc(F)cc2)c1,"inconclusive: 22.4 µM [activator, single point]"
2,CCOC(=O)c1sc(C)c2c1NC(C)(c1cccs1)NC2=O (stereo unspecified),"inconclusive: 35.5 µM [activator, single point]"
3,Cc1ccc(N2C(=O)C3C4C=CC(CNC(=S)N5CCN(c6ccccn6)CC5)(O4)C3C2=O)cc1 (stereo unspecified),"inconclusive: 17.8 µM [inhibitor, single point]"
4,O=C(OC1CCc2ccccc2C1=O)c1ccccc1O (stereo unspecified),"inconclusive: 12.6 µM [activator, single point]"
5,O=C1CSC(c2ccccc2[N+](=O)[O-])N1c1ccc(O)cc1 (stereo unspecified),"inconclusive: 14.1 µM [activator, single point]"
6,CCCCOc1ccc(C(=O)NCc2ccccn2)cc1,"inconclusive: 5.01 µM [activator, single point]"
7,CC1CCCN(S(=O)(=O)c2ccc(C(=O)Nc3nnc(-c4ccccc4Cl)o3)cc2)C1 (stereo unspecified),active: 0.1 µM
8,CNC(=S)NCCc1ccc(OC)cc1,"inconclusive: 15.8 µM [inhibitor, partial curve]"
9,COc1ccc(CSc2nnnn2C)cc1[N+](=O)[O-],inactive
10,Cc1ccc(/C=N/NC(=O)c2ccc3nc[nH]c3c2)o1,"inconclusive: 1.78 µM [inhibitor, partial curve]"
11,Cc1ccc(S(=O)(=O)N2CCOCC2)cc1C(=O)Nc1nc2ccccc2[nH]1,active: 15.8 µM
12,CCOc1cc(NS(=O)(=O)c2ccc(NC(C)=O)cc2)c(OCC)cc1NC(=O)C(C)C,inactive
13,CCOc1ncccc1C(=O)OCC(=O)Nc1cc(S(=O)(=O)N2CCOCC2)ccc1Cl,"inconclusive: 35.5 µM [activator, single point]"
14,COc1ccc(NC(C)=O)cc1NC(=O)CN1CCN(C2c3ccccc3-c3ccccc32)CC1,"inconclusive: 14.1 µM [activator, single point]"
15,Cc1ccc(O)c(NC(=S)NC(=O)/C=C/c2ccco2)c1,active: 7.94 µM
16,CCc1nnc(NC(=O)CSc2nnc(-c3cc4ccccc4cc3O)n2CC)s1,"inconclusive: 12.6 µM [activator, partial curve]"
17,CNC(=S)N1N=C(c2cccs2)CC1c1ccc(OC)cc1 (stereo unspecified),active: 20 µM
18,CC1CCCC(C)N1C(=O)COC(=O)Cc1ccc(F)cc1 (stereo unspecified),inactive
19,COc1cc(C2C3=C(CC(C)(C)CC3=O)OC(N)=C2[N+](=O)[O-])ccc1O (stereo unspecified),"inconclusive: 35.5 µM [inhibitor, single point]"
20,CC(C)(C)c1ccc(-c2cc(N)n[nH]2)cc1,inactive
21,O=C(NC1CC(=O)c2sccc21)c1cccc(C(F)(F)F)c1 (stereo unspecified),"inconclusive: 35.5 µM [activator, single point]"
22,COc1cc(/C(C#N)=C/c2ccccc2)c([N+](=O)[O-])cc1OC,"inconclusive: 28.2 µM [activator, single point]"
23,c1ccc(-c2nc3ccccc3[nH]2)nc1,active: 5.62 µM
24,O=[N+]([O-])c1ccc(N/N=C2\CC3CC=CC23)cc1 (stereo unspecified),"inconclusive: 11.2 µM [activator, partial curve]"

row,Compound,Potency
1,O=C(Nc1ccc(Br)c(Cl)c1)c1ccco1,"inconclusive: 12.6 µM [activator, partial curve]"
2,CCOC(=O)c1c(C)[nH]c(C=Nc2ccc(OC)cc2)c1O,"inconclusive: 8.91 µM [activator, partial curve]"
3,CCOc1cc(C2C(C(=O)OC(C)C)=C(C)NC3=C2C(=O)CCC3)cc([N+](=O)[O-])c1O (stereo unspecified),"inconclusive: 35.5 µM [inhibitor, single point]"
4,COC(=O)C1CN(C(=O)COc2ccc(C)cc2)c2ccccc2O1 (stereo unspecified),inactive
5,O=C(NCCO)c1cccc(Nc2nc(-c3ccccc3)c3cc(Cl)ccc3n2)c1,inactive
6,COC(=O)c1cc2ccc(OC)c(OC)c2c(=O)s1,"inconclusive: 5.62 µM [activator, single point]"
7,COc1ccc(C(c2nnnn2Cc2ccccc2)N2CCN(C(=O)c3ccco3)CC2)cc1 (stereo unspecified),"inconclusive: 8.91 µM [activator, partial curve]"
8,COC(=O)N[C@@H](/C=C/c1ccccc1)/C(C(=O)OC)=C(\C)NCc1ccccc1,inactive
9,CCn1ccnc1CN1CCCC(C(=O)c2ccc3cc(OC)ccc3c2)C1 (stereo unspecified),active: 0.0224 µM
10,O=C1SC(SC(=Nc2ccccc2)Nc2ccccc2)C(=O)N1c1ccccc1 (stereo unspecified),inactive
11,CN(Cc1nccn1C)C(=O)c1cc(COc2cccc(C(F)(F)F)c2)on1,"inconclusive: 6.31 µM [activator, full curve, poor fit]"
12,c1csc(CNc2ccnc(-c3ccoc3)n2)c1,"inconclusive: 7.94 µM [activator, partial curve]"
13,CCOC(=O)C1=C(O)/C(=C/c2cn(CC(=O)N3CCCC3)c3ccccc23)SC1=Nc1ccccc1,"inconclusive: 6.31 µM [activator, full curve]"
14,O=C(c1cc(C(F)(F)F)cc(C(F)(F)F)c1)N1CCC[C@@]2(CCN(c3ccccc3)C2)C1,inactive
15,COc1cc(COC(=O)c2cnc(C)cn2)c(OC)cc1Br,inactive
16,COc1ccc(NC(=O)N2CC[C@@]3(CCCN(C(C)=O)C3)C2)cc1,inactive
17,O=c1[nH]c(NNC(=S)NC2CCCCC2)nc2c1C1(CCCC1)Cc1ccccc1-2,active: 2.82 µM
18,COc1ccc(-c2nnc(SCC(=O)Nc3cc(S(=O)(=O)N4CCCCC4)ccc3Cl)n2N)cc1,"inconclusive: 7.08 µM [activator, partial curve]"
19,CCCc1n[nH]c2c1/C(=N\OCC)CC(C)(C)C2,"inconclusive: 11.2 µM [inhibitor, partial curve]"
20,O=C(CCn1cnc2ccccc2c1=O)Nc1nc2c(s1)CCCC2,"inconclusive: 11.2 µM [activator, partial curve]"
21,O=C(NNC1=NS(=O)(=O)c2ccccc21)c1ccc([N+](=O)[O-])cc1,active: 12.6 µM
22,CCc1ccc(C(C)NC(=S)NCc2ccc(F)cc2)cc1 (stereo unspecified),active: 2.24 µM
23,O=C(CCCN1C(=O)/C(=C/c2ccccc2Cl)SC1=S)NNC(=O)c1ccncc1,"inconclusive: 7.08 µM [inhibitor, partial curve]"
